This is one part of the list.
Compound: CC1Cc2ccccc2N1C(=O)C1CCCN(C1)C(=O)CCl (mixture of isomers) [TRIM25 ligand 11 (diastereomer mixture)]
Assay: probe-labelled cysteine peptide fold change vs DMSO (competition) (log2 fold change); higher = less target engagement (more negative = stronger competition)
Settings: THP-1, incubation time: 4 h
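Also: competitive chemoproteomic profiling in live THP-1 cells with an iodoacetamide desthiobiotin (IA-DTB) probe, comparing probe-labelled peptide intensities in compound-treated cells against DMSO-treated controls.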

Protein sequences, listed by entry. Tags and fused reporters are not part of them. Lines headed by an entry give the natural chain unless they say otherwise; changes in a name come on top.
UniProt Q13217: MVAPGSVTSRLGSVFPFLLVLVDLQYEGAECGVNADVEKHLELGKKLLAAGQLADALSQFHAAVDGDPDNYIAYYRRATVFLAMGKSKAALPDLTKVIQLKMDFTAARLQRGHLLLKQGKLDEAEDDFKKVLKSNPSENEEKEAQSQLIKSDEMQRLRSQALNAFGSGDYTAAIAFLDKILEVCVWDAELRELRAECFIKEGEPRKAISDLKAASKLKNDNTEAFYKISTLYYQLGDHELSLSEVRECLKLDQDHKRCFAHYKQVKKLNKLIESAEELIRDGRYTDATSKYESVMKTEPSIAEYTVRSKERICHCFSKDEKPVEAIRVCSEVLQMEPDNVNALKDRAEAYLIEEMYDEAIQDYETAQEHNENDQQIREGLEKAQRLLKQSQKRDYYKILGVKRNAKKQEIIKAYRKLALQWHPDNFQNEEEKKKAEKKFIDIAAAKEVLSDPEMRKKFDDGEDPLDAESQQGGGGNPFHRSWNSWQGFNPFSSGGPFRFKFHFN
UniProt Q9BTC0, whole entry, looked up: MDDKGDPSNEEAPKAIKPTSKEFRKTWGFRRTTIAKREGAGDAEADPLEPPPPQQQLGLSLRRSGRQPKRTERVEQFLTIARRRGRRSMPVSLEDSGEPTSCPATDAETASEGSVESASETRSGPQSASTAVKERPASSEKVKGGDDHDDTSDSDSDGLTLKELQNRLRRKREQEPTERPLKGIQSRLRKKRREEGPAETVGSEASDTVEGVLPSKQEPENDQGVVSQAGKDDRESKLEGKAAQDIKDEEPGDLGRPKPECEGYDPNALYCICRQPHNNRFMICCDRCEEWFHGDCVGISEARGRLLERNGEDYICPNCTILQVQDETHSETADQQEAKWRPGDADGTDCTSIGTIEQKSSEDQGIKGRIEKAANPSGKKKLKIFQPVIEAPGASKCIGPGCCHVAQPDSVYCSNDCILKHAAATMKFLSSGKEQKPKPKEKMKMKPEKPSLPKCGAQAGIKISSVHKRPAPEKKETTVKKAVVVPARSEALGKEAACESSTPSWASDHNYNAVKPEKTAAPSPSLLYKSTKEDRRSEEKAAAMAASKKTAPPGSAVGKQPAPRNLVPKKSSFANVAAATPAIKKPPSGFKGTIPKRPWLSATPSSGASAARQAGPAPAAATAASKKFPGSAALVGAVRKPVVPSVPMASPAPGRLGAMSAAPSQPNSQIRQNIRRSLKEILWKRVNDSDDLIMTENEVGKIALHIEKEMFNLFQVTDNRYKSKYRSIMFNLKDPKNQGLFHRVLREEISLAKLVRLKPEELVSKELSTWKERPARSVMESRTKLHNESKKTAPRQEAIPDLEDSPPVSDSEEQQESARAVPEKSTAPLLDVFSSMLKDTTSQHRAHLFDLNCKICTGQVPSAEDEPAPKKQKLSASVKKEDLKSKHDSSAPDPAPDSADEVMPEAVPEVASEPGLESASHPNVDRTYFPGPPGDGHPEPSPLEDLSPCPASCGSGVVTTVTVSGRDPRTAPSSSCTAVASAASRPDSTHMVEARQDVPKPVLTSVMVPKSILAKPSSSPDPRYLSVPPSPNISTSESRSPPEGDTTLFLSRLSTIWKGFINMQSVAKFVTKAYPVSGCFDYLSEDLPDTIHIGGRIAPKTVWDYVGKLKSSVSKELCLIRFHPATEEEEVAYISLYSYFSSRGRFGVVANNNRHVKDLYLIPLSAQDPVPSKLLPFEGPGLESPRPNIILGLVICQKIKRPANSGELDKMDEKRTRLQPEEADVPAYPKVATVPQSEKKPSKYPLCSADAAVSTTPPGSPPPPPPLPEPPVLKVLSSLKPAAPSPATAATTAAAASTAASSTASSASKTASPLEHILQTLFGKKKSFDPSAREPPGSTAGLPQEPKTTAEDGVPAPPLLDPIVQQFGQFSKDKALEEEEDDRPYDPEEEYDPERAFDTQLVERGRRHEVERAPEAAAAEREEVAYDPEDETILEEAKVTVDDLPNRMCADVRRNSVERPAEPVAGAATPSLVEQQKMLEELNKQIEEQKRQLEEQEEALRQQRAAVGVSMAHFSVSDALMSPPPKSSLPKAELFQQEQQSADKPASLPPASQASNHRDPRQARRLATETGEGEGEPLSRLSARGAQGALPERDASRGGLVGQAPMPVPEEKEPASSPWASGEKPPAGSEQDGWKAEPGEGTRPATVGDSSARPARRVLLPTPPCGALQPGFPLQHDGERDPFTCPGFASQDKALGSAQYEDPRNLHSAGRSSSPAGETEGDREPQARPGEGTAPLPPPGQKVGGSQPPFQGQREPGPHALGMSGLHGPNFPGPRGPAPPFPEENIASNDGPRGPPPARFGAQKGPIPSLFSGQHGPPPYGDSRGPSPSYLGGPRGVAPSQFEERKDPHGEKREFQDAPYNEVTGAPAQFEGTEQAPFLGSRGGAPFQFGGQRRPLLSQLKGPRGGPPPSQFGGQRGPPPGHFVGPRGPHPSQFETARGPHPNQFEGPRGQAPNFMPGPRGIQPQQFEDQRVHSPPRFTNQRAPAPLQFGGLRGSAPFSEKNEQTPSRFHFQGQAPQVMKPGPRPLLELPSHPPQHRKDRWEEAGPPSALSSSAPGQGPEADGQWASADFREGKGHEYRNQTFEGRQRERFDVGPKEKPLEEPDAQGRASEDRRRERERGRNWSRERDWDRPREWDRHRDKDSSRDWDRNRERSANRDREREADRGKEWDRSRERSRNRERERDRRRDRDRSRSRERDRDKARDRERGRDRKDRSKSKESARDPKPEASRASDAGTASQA
UniProt Q8IYB7: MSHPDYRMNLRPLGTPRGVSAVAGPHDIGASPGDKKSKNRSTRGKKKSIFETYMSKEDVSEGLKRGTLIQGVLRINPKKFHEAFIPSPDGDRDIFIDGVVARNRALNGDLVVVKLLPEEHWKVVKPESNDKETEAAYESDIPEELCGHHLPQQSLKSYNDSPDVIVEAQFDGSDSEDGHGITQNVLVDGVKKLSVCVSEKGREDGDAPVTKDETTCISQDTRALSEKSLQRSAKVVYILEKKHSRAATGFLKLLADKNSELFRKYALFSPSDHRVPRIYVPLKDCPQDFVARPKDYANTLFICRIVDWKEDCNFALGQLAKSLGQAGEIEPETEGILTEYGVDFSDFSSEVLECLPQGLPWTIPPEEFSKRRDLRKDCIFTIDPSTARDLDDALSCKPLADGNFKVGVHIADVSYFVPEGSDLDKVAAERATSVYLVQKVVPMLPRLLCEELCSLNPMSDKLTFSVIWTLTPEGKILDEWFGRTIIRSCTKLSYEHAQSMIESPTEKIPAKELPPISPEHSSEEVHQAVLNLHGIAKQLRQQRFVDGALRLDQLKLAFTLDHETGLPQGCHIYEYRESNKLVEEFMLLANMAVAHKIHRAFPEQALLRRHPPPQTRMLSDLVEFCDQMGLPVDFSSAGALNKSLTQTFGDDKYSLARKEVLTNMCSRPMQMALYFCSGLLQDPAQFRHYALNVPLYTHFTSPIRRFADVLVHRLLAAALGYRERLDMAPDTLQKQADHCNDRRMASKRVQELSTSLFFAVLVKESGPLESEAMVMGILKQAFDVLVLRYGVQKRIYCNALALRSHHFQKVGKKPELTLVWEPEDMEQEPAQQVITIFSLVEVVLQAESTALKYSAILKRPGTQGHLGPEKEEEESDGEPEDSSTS
UniProt O00429, whole entry, looked up: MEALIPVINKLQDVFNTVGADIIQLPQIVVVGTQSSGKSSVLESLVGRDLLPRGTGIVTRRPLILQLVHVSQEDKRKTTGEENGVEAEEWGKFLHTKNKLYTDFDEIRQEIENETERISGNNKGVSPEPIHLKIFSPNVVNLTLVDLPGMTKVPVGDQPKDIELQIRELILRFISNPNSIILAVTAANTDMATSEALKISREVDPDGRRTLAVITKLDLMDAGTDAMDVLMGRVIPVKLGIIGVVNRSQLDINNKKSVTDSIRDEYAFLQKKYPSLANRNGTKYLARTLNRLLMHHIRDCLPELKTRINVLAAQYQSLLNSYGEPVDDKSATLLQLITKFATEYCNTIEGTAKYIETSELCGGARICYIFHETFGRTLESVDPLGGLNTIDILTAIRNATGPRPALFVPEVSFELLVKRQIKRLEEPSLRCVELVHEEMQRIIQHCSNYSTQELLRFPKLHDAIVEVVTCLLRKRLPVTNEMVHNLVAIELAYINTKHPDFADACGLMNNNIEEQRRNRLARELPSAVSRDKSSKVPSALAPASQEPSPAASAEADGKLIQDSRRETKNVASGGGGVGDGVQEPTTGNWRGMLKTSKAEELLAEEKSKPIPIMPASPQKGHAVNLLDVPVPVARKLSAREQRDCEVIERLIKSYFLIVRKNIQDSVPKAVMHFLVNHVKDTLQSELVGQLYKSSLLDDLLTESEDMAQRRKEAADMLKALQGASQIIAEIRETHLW
UniProt Q86Y56: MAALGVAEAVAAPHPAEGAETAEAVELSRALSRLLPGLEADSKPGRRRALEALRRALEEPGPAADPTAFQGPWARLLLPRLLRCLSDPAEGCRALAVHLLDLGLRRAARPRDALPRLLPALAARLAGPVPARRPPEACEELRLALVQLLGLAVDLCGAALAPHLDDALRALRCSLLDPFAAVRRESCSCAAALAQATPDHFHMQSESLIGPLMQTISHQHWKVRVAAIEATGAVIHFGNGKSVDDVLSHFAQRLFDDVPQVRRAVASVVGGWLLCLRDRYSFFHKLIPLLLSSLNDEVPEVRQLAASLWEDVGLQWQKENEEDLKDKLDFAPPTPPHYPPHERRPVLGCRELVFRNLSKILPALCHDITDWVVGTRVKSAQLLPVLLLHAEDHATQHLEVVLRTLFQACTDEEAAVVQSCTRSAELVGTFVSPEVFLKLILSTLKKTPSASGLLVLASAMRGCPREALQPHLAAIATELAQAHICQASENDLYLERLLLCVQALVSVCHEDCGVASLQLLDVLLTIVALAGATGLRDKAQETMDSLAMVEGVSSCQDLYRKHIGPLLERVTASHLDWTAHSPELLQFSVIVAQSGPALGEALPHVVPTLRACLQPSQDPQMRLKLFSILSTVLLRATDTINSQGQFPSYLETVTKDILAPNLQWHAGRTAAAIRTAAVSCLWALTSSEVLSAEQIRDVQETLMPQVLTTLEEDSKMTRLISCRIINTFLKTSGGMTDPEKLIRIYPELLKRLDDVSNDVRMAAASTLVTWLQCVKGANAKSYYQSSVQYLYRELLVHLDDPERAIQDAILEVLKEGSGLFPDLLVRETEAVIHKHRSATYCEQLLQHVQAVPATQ
UniProt Q92620: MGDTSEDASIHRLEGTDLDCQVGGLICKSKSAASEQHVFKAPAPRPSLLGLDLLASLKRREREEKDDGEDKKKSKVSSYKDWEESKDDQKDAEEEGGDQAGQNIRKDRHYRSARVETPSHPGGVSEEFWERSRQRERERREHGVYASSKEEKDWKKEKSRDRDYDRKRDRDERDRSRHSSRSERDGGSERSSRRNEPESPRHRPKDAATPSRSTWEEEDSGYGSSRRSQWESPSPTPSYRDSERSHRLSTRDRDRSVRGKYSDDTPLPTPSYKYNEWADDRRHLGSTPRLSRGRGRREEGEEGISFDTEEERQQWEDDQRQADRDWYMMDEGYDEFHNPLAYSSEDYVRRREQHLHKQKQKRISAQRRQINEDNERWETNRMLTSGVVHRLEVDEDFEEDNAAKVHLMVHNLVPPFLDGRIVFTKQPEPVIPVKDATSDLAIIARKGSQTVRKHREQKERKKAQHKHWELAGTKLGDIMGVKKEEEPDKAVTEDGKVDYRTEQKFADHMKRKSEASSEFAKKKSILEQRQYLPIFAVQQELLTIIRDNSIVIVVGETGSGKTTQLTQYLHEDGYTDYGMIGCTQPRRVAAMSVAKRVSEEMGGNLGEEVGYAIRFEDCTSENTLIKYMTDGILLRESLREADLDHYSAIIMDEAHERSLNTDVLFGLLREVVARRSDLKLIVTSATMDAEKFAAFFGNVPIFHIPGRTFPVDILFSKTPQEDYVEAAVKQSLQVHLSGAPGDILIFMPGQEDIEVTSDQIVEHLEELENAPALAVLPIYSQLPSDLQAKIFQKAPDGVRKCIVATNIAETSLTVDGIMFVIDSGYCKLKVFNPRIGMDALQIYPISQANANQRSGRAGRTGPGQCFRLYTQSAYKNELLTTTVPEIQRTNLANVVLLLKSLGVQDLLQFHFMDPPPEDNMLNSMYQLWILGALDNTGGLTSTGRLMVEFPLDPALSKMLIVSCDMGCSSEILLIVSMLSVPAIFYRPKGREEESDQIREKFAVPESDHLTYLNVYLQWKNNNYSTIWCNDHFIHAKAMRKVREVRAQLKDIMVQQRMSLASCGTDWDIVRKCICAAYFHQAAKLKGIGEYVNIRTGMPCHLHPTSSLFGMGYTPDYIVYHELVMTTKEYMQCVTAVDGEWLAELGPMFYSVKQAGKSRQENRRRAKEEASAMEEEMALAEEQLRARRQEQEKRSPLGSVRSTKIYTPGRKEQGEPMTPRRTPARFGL

## DNAJC3_Q13217_184_ILEVCVWDAELR (UniProt Q13217)
10 µM
  probe-labelled cysteine peptide fold change: 0.0448
50 µM
  probe-labelled cysteine peptide fold change: 0.235

## DIDO1_Q9BTC0_350_WRPGDADGTDCTSIGTIEQK (UniProt Q9BTC0)
10 µM
  probe-labelled cysteine peptide fold change: 0.153
50 µM
  probe-labelled cysteine peptide fold change: -0.0755

## DIS3L_Q8TF46_203_AAHELCDSILQSR (UniProt Q8TF46)
10 µM
  probe-labelled cysteine peptide fold change: 0.0157
50 µM
  probe-labelled cysteine peptide fold change: 0.0268

## DIS3L2_Q8IYB7_396_DLDDALSCKPLADGNFK (UniProt Q8IYB7)
10 µM
  probe-labelled cysteine peptide fold change: 0.0449
50 µM
  probe-labelled cysteine peptide fold change: -0.0233

## DNAJC7_Q99615_58_AIDMCPK (UniProt Q99615)
10 µM
  probe-labelled cysteine peptide fold change: -0.0221
50 µM
  probe-labelled cysteine peptide fold change: 0.137

## DHPS_P49366_177_IGNLLVPNENYCK (UniProt P49366)
10 µM
  probe-labelled cysteine peptide fold change: 0.0193
50 µM
  probe-labelled cysteine peptide fold change: -0.193

## DNM1L_O00429_446_IIQHCSNYSTQELLR (UniProt O00429)
10 µM
  probe-labelled cysteine peptide fold change: 0.118
50 µM
  probe-labelled cysteine peptide fold change: -0.281

## DNAJC3_Q13217_248_ISTLYYQLGDHELSLSEVRECLK (UniProt Q13217)
10 µM
  probe-labelled cysteine peptide fold change: -0.302
50 µM
  probe-labelled cysteine peptide fold change: -0.0891

## DNAJA1_P31689_271_RGEDLFMCMDIQLVEALCGFQK (UniProt P31689)
10 µM
  probe-labelled cysteine peptide fold change: -0.021
50 µM
  probe-labelled cysteine peptide fold change: 0.281

## DNAAF5_Q86Y56_365_ILPALCHDITDWVVGTR (UniProt Q86Y56)
10 µM
  probe-labelled cysteine peptide fold change: -0.0161
50 µM
  probe-labelled cysteine peptide fold change: -0.00308

## DNAJA1_P31689_150+153_GAVECCPNCR (UniProt P31689)
10 µM
  probe-labelled cysteine peptide fold change: 0.0372
50 µM
  probe-labelled cysteine peptide fold change: 0.0338

## DKC1_O60832_310_DSAVNAICYGAK (UniProt O60832)
10 µM
  probe-labelled cysteine peptide fold change: -0.15
50 µM
  probe-labelled cysteine peptide fold change: -0.0673

## DIAPH1_O60610_1005_NAGAFGFNISFLCK (UniProt O60610)
10 µM
  probe-labelled cysteine peptide fold change: -0.119
50 µM
  probe-labelled cysteine peptide fold change: -0.0371

## DHX38_Q92620_1074_CICAAYFHQAAK (UniProt Q92620)
10 µM
  probe-labelled cysteine peptide fold change: 0.0376
50 µM
  probe-labelled cysteine peptide fold change: -0.113
